Data published in paper PMC7297984.
Results are given in words; binding and its absence hold for the method and conditions named. In cells and extracts the contact can be indirect. Some binding calls cover weakened binding; strength is not graded here.

Amino acid sequences for entries named in this document (tags omitted).
UniProt P05556: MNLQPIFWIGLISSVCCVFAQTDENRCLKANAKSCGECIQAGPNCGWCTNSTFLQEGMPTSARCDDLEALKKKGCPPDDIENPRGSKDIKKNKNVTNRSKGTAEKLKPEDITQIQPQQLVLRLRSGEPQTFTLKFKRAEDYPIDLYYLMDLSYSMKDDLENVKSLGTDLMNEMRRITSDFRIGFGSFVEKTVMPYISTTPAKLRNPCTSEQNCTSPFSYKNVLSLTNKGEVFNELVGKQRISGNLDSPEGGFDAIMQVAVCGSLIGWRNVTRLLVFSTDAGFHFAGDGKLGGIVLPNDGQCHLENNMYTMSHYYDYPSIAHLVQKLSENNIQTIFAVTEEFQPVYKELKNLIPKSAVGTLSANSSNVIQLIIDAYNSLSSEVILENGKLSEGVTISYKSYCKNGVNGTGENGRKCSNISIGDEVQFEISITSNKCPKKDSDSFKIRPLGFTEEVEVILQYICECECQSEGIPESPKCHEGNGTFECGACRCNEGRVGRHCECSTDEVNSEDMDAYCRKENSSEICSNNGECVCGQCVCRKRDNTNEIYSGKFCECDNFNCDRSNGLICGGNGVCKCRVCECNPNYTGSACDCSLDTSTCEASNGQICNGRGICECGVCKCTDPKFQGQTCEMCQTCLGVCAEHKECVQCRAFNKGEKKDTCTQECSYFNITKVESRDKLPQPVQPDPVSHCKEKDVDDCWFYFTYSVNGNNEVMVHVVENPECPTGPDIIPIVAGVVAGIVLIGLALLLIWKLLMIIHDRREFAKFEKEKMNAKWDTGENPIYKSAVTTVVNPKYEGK
UniProt Q12809: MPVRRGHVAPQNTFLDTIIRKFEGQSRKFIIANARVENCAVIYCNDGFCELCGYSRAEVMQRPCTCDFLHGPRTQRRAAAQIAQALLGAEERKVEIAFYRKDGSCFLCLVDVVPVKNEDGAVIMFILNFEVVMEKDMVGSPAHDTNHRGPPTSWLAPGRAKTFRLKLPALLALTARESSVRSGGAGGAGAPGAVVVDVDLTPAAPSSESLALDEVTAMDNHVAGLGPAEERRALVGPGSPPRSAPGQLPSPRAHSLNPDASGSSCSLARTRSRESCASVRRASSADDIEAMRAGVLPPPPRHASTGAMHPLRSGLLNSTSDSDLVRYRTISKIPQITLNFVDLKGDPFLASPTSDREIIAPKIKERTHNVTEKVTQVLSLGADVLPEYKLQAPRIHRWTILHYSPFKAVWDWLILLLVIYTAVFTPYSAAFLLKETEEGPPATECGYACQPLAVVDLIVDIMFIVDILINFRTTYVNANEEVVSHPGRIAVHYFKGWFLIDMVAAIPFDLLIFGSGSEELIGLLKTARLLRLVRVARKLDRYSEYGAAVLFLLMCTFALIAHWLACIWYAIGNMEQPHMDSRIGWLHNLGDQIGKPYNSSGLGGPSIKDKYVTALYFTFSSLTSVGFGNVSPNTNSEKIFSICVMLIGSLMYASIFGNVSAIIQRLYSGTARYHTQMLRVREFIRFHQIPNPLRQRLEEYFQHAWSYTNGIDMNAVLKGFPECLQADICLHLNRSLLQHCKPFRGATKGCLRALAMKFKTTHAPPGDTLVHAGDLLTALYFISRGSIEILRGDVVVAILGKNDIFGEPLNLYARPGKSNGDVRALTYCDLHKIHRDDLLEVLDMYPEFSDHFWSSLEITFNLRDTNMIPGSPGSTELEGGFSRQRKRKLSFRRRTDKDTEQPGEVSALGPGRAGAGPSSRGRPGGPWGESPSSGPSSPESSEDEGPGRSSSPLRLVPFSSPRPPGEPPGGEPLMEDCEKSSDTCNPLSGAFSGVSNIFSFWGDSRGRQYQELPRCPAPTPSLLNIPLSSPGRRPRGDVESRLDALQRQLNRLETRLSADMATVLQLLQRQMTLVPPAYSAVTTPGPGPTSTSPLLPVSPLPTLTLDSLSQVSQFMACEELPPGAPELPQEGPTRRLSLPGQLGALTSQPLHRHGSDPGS

How the values were obtained:
[1] = molecular target: β1 integrin subunit (human (endogenous in HCT 116)) (UniProt P05556); test: condition: only cells seeded onto uncoated surfaces; co-IP; HCT 116 cells seeded on uncoated surfaces (no-adhesion control) for 90 min; total lysate (NP40 lysis buffer, 150 mM NaCl, Tris-HCl pH 8) immunoprecipitated, protein A/G agarose beads; blots with anti-KV11.1, anti-β1 integrin and anti-NHE1
[2] = molecular target: KV11.1 potassium channel (human (endogenous in HCT 116)) (UniProt Q12809); test: co-IP; HCT 116 cells before seeding or seeded on Col-I for 90 min; total lysate (NP40 lysis buffer, 150 mM NaCl, Tris-HCl pH 8) immunoprecipitated overnight with anti-β1 integrin (TS2/16) or anti-KV11.1 mAb, protein A/G agarose beads 2 h at 4°C; blots with anti-KV11.1, anti-β1 integrin and …
[3] = molecular target: β1 integrin subunit (human (endogenous in HCT 116)) (UniProt P05556); test: as above
[4] = molecular target: β1 integrin subunit (human (endogenous in HCT 116)) (UniProt P05556); test: co-IP; HCT 116 cells seeded on uncoated surfaces (no-adhesion control) for 90 min; total lysate (NP40 lysis buffer, 150 mM NaCl, Tris-HCl pH 8) immunoprecipitated, protein A/G agarose beads; blots with anti-KV11.1, anti-β1 integrin and anti-NHE1

Row | Substance | binding [1] | binding [2] | binding [3] | binding [4]
1 | Na+/H+ antiporter NHE1 (from UniProt P19634 1-815) | no binding | binds | binds | 
2 | KV11.1 potassium channel (from UniProt Q12809 1-1159) |  |  | binds | binds weakly
